From PMC10644524 come the findings set out here.

The chains behind the UniProt entries cited, without tags or fusion partners. Residues count along the entry.
UniProt O75581, residues 20-1613: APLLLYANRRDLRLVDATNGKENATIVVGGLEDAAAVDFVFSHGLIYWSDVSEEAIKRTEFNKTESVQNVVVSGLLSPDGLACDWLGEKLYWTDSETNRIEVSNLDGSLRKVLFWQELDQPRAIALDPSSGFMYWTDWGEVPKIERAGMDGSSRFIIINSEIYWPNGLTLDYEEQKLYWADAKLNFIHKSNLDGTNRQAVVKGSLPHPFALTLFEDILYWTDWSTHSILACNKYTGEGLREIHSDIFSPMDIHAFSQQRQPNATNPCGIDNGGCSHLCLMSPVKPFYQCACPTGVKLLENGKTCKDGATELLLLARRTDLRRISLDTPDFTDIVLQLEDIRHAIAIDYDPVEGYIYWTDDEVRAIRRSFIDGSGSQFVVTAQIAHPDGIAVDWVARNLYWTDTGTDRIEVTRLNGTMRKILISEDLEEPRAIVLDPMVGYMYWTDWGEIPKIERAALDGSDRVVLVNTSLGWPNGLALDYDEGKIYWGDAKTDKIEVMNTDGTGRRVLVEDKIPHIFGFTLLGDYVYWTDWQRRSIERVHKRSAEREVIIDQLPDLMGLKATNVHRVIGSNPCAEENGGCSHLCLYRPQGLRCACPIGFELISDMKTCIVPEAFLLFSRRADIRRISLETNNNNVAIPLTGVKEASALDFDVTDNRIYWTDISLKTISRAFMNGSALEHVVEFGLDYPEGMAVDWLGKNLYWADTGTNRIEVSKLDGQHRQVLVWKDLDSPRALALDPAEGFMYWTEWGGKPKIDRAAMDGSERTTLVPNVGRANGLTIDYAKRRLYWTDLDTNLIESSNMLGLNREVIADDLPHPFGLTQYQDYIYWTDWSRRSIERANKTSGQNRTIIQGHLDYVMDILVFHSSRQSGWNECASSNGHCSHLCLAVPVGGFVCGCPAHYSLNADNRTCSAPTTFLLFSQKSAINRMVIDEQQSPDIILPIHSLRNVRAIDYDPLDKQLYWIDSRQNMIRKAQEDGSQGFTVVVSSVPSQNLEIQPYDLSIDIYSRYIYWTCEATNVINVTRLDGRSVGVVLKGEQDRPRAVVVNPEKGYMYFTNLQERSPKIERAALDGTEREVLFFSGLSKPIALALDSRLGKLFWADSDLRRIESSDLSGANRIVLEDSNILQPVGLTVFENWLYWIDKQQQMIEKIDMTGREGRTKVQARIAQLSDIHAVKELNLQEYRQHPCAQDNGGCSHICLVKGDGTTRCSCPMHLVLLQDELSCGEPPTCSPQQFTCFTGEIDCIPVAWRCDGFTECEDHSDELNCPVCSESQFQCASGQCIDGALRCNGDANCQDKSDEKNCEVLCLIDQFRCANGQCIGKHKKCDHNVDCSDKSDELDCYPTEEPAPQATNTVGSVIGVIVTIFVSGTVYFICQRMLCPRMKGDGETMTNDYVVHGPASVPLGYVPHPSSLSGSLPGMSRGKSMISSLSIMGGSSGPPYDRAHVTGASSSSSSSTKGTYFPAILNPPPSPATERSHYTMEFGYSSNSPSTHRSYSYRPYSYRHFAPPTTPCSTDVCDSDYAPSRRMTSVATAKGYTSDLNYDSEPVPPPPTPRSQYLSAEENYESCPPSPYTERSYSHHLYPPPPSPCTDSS
UniProt P18065, residues 36-325: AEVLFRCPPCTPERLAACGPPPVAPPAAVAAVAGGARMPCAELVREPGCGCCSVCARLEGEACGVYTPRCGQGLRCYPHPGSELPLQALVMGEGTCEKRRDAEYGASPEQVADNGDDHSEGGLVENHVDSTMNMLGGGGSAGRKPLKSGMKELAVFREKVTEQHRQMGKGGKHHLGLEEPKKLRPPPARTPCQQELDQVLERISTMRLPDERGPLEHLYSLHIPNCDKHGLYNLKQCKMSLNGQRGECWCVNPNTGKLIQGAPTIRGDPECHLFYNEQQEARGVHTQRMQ

The target of this assay is low-density lipoprotein receptor-related protein 6 (LRP6) (human (endogenous in HepG2)) (UniProt O75581). Kind of assay: co-IP; LRP6 antibodies (or corresponding IgG) on protein A/G plus-agarose; HepG2 whole-cell lysates (25 mmol/L HEPES, 150 mmol/L NaCl, 5 mmol/L EDTA, 1% Triton X-100, 10% glycerin), precleared with normal mouse IgG, overnight at 4 °C; cells transfected with IGFBP2 plasmid or the vector control; blot with LRP6 or IGFBP2 antibodies.

No constants are given. Whether binding was seen depends on the method and setting. In cells and extracts the contact can be indirect. Some entries that bind do so weakly or less than the wild type.

Consider “insulin-like growth factor-binding protein 2 (IGFBP2), endogenous in HepG2 control cells (from UniProt P18065 36-325)”, for which the binding entry is “binds”.
For “insulin-like growth factor-binding protein 2 (IGFBP2), overexpressed from pcDNA3.1 in HepG2 cells (from UniProt P18065 36-325)”, the binding result is listed as “binds”.
